The values below come from paper PMC10718020.

The chains behind the UniProt entries cited, without tags or fusion partners. Residues count along the entry.
UniProt P78527: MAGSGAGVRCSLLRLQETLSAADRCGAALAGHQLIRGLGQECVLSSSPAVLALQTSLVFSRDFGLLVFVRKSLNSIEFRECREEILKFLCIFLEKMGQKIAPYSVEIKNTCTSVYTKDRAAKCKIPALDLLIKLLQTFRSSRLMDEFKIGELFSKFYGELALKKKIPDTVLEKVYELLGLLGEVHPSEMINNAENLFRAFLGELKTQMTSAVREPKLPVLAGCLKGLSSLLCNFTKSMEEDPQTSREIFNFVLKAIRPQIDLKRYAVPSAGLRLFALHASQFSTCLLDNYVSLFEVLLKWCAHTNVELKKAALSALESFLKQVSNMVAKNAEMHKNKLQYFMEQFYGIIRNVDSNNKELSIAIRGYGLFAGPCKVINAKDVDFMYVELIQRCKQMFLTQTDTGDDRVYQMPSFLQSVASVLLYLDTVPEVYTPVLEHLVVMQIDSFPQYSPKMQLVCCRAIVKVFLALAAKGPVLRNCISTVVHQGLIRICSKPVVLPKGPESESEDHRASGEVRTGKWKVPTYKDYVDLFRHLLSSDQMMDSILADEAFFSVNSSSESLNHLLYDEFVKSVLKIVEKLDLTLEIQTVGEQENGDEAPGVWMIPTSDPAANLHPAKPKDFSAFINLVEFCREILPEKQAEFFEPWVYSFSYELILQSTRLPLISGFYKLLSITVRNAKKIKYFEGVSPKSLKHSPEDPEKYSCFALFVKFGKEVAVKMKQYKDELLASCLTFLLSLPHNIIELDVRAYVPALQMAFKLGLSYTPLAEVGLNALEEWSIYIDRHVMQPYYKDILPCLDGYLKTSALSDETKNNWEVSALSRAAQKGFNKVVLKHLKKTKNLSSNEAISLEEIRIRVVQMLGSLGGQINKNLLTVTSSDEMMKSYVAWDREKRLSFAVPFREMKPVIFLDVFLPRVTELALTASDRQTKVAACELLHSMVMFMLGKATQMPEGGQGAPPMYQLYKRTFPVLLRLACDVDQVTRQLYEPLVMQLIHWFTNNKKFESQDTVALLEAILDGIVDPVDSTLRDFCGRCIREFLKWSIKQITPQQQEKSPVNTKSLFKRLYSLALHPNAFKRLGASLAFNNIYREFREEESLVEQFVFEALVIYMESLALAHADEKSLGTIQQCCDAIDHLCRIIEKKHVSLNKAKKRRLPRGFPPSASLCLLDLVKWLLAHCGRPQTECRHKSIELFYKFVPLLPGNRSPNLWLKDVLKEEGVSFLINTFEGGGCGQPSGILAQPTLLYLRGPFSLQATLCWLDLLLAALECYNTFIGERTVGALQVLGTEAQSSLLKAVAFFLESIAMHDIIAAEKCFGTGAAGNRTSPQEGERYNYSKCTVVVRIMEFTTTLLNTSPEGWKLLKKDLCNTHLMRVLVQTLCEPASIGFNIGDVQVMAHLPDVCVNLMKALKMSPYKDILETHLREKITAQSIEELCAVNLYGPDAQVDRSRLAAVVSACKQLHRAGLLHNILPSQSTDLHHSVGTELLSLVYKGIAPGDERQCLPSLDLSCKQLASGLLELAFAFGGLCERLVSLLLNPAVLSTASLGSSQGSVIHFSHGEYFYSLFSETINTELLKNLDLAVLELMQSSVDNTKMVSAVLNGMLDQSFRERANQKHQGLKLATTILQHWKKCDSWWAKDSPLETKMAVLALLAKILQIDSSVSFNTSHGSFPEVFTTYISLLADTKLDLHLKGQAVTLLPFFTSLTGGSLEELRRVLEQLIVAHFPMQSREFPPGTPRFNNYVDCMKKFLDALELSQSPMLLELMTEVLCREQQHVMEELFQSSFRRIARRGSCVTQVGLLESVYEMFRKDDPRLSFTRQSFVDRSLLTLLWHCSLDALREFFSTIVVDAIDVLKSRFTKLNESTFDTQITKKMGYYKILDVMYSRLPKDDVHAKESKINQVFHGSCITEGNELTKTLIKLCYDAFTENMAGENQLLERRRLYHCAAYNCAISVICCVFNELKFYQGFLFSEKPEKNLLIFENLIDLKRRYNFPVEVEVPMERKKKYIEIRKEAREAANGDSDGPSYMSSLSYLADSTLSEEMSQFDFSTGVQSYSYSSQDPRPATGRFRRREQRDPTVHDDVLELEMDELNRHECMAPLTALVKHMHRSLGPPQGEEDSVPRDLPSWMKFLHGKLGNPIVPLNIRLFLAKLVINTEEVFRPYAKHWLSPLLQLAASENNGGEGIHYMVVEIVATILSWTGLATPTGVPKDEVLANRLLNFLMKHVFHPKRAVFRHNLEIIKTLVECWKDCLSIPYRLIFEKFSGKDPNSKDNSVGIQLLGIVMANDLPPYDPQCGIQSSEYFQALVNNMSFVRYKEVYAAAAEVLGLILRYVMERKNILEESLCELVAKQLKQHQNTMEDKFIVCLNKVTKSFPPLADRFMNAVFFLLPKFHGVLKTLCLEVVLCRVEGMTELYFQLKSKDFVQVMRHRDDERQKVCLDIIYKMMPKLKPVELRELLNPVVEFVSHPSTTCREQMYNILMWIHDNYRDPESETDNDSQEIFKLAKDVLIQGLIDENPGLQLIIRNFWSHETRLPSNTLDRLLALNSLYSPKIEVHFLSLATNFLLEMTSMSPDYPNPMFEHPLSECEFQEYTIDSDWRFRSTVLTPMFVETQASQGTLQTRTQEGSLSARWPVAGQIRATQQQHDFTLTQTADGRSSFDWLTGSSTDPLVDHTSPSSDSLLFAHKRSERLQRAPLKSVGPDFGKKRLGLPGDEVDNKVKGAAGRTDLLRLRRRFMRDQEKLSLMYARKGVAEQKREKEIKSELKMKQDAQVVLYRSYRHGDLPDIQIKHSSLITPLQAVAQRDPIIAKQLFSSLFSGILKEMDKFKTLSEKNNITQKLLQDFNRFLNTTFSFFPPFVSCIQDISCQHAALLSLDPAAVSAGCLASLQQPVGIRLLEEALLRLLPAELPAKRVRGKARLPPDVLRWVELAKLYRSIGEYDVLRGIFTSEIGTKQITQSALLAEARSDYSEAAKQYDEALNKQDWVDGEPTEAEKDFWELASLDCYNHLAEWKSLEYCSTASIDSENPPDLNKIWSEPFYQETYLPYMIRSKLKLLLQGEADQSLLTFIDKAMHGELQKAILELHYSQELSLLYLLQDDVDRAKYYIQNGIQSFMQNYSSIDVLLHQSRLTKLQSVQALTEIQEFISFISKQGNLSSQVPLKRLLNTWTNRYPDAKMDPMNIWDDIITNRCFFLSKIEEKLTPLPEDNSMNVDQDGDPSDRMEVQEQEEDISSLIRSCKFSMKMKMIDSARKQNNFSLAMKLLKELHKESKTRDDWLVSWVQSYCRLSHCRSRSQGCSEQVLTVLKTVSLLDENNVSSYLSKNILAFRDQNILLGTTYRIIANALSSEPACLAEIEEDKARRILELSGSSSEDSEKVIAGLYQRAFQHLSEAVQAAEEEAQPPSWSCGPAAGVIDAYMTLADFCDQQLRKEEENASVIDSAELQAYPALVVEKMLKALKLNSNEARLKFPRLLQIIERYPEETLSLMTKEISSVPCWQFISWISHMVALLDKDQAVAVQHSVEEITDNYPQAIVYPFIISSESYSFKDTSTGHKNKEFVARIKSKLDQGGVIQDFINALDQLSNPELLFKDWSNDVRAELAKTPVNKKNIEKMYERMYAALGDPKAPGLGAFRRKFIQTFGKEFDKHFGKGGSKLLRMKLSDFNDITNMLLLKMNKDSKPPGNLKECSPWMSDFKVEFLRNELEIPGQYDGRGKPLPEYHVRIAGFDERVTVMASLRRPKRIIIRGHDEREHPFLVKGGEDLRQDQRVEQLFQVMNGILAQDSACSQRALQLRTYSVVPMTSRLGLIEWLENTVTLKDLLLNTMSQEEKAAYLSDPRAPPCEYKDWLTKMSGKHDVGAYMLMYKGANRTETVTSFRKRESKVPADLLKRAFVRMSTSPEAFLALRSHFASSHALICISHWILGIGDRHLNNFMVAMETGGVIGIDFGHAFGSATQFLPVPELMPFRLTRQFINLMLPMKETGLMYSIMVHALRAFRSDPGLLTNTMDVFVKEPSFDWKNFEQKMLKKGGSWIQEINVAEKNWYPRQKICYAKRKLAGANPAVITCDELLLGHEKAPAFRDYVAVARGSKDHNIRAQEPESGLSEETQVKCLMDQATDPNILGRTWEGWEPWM
UniProt Q9NZQ7, residues 19-290: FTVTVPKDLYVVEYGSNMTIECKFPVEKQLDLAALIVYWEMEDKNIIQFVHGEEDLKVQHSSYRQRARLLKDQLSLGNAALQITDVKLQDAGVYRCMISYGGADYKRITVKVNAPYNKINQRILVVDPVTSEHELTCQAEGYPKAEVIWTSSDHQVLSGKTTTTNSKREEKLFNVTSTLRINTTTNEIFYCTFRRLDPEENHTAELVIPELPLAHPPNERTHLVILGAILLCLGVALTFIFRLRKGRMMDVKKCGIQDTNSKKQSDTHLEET

No constants are given. Whether binding was seen depends on the method and setting. In cells and extracts the contact can be indirect. These calls come from enrichment with a bait or labelling near it, and not all partners need be listed.

In the test the target is DNA-dependent protein kinase (DNA-PK), PRKDC encoded protein DNA-PKcs, in HEK-293 T cells (human) (UniProt P78527). Nature of the test: affinity purification with mass spectrometry; DNA-PK antibody pull-down in HEK-293 T cells, then modification mass spectrometry analysis.

With “Programmed cell death 1 ligand 1 (PD-L1), in HEK-293 T cells (from UniProt Q9NZQ7 19-290)”, the binding entry is given as “binds”.
